Laboratory results published in article PMC5569033.

Experiments:
[1] = target: streptavidin (Streptomyces avidinii) (UniProt P22629); experiment: Spinach aptamer fluorescence (bulk, droplets; standard curve linear 1-40 mg/l); conditions: DFHBI-1T, Mg2+, K+; Panel: 10 uM RNA, 50 mM Tris-HCl pH 7.5, 125 mM KCl, 5 mM MgCl2, 2 uM DFHBI or DFHBI-1T, folded at 37 C; streptavidin curve: 100 mM Tris pH 7.5, 200 mM KCl, 10 mM NaCl; commercial protein; label: DFHBI-1T dye (non-covalent); letters put together from the description
thrombin = experiment: Spinach aptamer fluorescence (bulk and droplets); conditions: DFHBI or DFHBI-1T 2 uM, 5 mM Mg2+, 125 mM K+; Panel: 10 uM RNA, 50 mM Tris-HCl pH 7.5, 125 mM KCl, 5 mM MgCl2, 2 uM DFHBI or DFHBI-1T, folded at 37 C; streptavidin curve: 100 mM Tris pH 7.5, 200 mM KCl, 10 mM NaCl; commercial protein; label: DFHBI or DFHBI-1T dye (non-covalent); letters put together from the description

GAUGUAACUGAAUGAAAUGGUGAAGGACGGGUCCACGACCGACCAGAAUCAUGCAAGUGCGUAAGAUAGUCGCGGGCCGGGGUUGUUGAGUAGAGUGUGAGCUCCGUAACUAGUUACAUC [Spinach2-Streptavidin (SA) aptamer sensor]
binding result [1]: binds

GAUGUAACUGAAUGAAAUGGUGAAGGACGGGUCCAGGAACAAAGCUGAAGUACUUACCUUGUUGAGUAGAGUGUGAGCUCCGUAACUAGUUACAUC [Spinach-thrombin aptamer sensor]
binding result (thrombin): binds

Construct, isoform or probe ends are uncertain for at least one entry. At least one verdict was read from the data and is not stated in words by the source.
